Measured values reported in patent US7919580B2, “Polysaccharide-protein binding model and nano-fibril formation of a starch binding domain” (priority 2008, dated 2011).

Tests used:
[1] = Thioflavin T fluorescence (ThT) assay for fibril formation; type: physicochemical; conditions: for fibril formation (ThT fluorescence emission at 482 nm): peptide pretreated at 37° C.; for fibril formation (ThT fluorescence intensity at 482 nm): CT-14 variants, 37° C. for 72 h
Experimental: Purified SBDs or synthetic peptides were dissolved in 10 mM sodium-citrate or phosphate-citrate buffer to a final concentration of 100 μM (at indicated pH). […] The measurements were recorded in a Perkin Elmer LS-55 spectrofluorometer at 25° C.
The relative fluorescence, peaked at 482 nm, subtracted from the background of buffer from the total fluorescence were measured as the amount of fibrillar aggregates with the excitation wavelength (slit width=4 nm) set at 450 nm and monitoring emission wavelength (slit width=8 nm) set at from 470 to 630 nm.

[2] = Atomic force microscopy of CT-14 fibrils; type: physicochemical

Substance | fibril formation (ThT fluorescence intensity at 482 nm) [1] | further results
CT-12′: synthetic C-terminal near-end portion of SBD (NNNSANYQVSTS; SITE (1)..(12); listed as Rhizopus oryzae) |  | fibril formation (ThT fluorescence emission at 482 nm) [1]: not ThT-positive
CT-13: synthetic C-terminal near-end portion of SBD (DNNNSANYQVSTS; SITE (1)..(13); listed as Rhizopus oryzae) |  | fibril formation (ThT fluorescence emission at 482 nm) [1]: not ThT-positive
CT-13′: synthetic C-terminal near-end portion of SBD (NNNSANYQVSTSK; SITE (1)..(13); listed as Rhizopus oryzae) |  | fibril formation (ThT fluorescence emission at 482 nm) [1]: not ThT-positive
CT-14 (D1A): synthetic CT-14 peptide analog D1A (ANNNSANYQVSTSK; Mutant CT-14 peptides.) | none | 
CT-14 (D1A+K14A): synthetic CT-14 peptide analog D1A+K14A (ANNNSANYQVSTSA; Mutant CT-14 peptides.) | none | 
CT-14 (D1K): synthetic CT-14 peptide analog D1K (KNNNSANYQVSTSK; Mutant CT-14 peptides.) | none | 
CT-14 (D1K+K14D): synthetic CT-14 peptide analog D1K+K14D (KNNNSANYQVSTSD; Mutant CT-14 peptides.) | increase in fluorescence intensity at 482 nm similar to the wild type CT-14 peptide | 
CT-14 (K14A): synthetic CT-14 peptide analog K14A (DNNNSANYQVSTSA; Mutant CT-14 peptides.) | none | 
CT-14 (K14D): synthetic CT-14 peptide analog K14D (DNNNSANYQVSTSD; Mutant CT-14 peptides.) | none | 
CT-14 (N2A): synthetic CT-14 peptide analog N2A (DANNSANYQVSTSK; Mutant CT-14 peptides.) | none | 
CT-14 (N3A): synthetic CT-14 peptide analog N3A (DNANSANYQVSTSK; Mutant CT-14 peptides.) | none | 
CT-14 (N4A): synthetic CT-14 peptide analog N4A (DNNASANYQVSTSK; Mutant CT-14 peptides.) | none | 
CT-14 (N7A): synthetic CT-14 peptide analog N7A (DNNNSAAYQVSTSK; Mutant CT-14 peptides.) | none | 
CT-14 (Q9A): synthetic CT-14 peptide analog Q9A (DNNNSANYAVSTSK; Mutant CT-14 peptides.) | none | 
CT-14 (S5A): synthetic CT-14 peptide analog S5A (DNNNAANYQVSTSK; Mutant CT-14 peptides.) | increase in fluorescence intensity at 482 nm similar to the wild type CT-14 peptide | 
CT-14 (S11A): synthetic CT-14 peptide analog S11A (DNNNSANYQVATSK; Mutant CT-14 peptides.) | increase in fluorescence intensity at 482 nm similar to the wild type CT-14 peptide | 
CT-14 (S13A): synthetic CT-14 peptide analog S13A (DNNNSANYQVSTAK; Mutant CT-14 peptides.) | increase in fluorescence intensity at 482 nm similar to the wild type CT-14 peptide | 
CT-14 (T12A): synthetic CT-14 peptide analog T12A (DNNNSANYQVSASK; Mutant CT-14 peptides.) | increase in fluorescence intensity at 482 nm similar to the wild type CT-14 peptide | 
CT-14 (V10A): synthetic CT-14 peptide analog V10A (DNNNSANYQASTSK; Mutant CT-14 peptides.) | increase in fluorescence intensity at 482 nm similar to the wild type CT-14 peptide | 
CT-14 (Y8A): synthetic CT-14 peptide analog Y8A (DNNNSANAQVSTSK; Mutant CT-14 peptides.) | none | 
CT-14: synthetic peptide corresponding to the last fourteen C-terminal residues of SBD (residues 95-108) (DNNNSANYQVSTSK; SITE (1)..(14); listed as Rhizopus oryzae) |  | ThT emission fluorescence intensity at 482 nm ([1]; 10 mM sodium-citrate or phosphate-citrate, pH 3.5): attenuated emission fluorescence intensity at 482 nm; fibril formation (ThT fluorescence at 482 nm) ([1]; Tris buffer, pH above 8.0, 72 h (data not shown)): abolished fibril formation; ThT fluorescence intensity ([1]; pH 4.5, 5.5, or 6.5): stronger than that at pH 3.5; fibril formation (ThT fluorescence emission at 482 nm) [1]: formed amyloid-like fibrils; fibril formation (ThT fluorescence) ([1]; phosphate-citrate buffer, pH 2.0, 2.5, and 3.0): no fibril formation; fibril morphology by AFM ([2]; 0 h): only spherical structures were observed; fibril morphology by AFM ([2]; 37° C. for 6 h): small protofibrils started to form; length of mature fibrils by AFM ([2]; 37° C., 12 h): > 200 nm; fibril morphology by AFM ([2]; 37° C., 24 h): fibril aggregation occurred along with an elongation step

Some entries repeat one wording, which the source may state once for all of them.
